Assay results from patent US20030229023A1.
These are yes or no findings as the source states them, for the method shown. Some binding calls cover weakened binding; strength is not graded here.

Protein sequences, listed by entry. Tags and fused reporters are not part of them. Residues count along the entry.
UniProt O15123, residues 19-496: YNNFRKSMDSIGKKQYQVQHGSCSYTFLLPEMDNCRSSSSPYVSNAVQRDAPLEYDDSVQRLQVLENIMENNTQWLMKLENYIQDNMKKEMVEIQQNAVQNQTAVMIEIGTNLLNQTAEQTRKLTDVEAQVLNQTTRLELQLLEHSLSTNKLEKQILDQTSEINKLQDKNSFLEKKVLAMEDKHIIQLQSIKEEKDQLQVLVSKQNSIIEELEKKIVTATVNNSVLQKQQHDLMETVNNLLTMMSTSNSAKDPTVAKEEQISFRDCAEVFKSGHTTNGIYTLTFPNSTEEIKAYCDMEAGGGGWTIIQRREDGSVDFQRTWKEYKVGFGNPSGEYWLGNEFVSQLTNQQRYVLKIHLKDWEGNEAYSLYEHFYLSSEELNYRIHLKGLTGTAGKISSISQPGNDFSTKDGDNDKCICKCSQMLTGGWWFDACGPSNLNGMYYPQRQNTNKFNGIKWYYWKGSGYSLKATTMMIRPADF

B1: TN8-8 (peptide)
peptide: KRPCEEMWGGCNYD
B2: TN12-9 (peptide)
peptide: FDYCEGVEDPFTFGCDNH
B3: TN8-Con4 (peptide)
peptide: QEECEWDPWTCEHM
B4: TN8-Con1 (peptide)
peptide: KRPCEEIFGGCTYQ
B5: L1 (peptide)
peptide: KFNPLDELEETLYEQFTFQQ
B6: TN8-14 (peptide)
peptide: HQICKWDPWTCKHW

Target: Recombinant Human Angiopoietin-2, R&D Systems (human) (UniProt O15123)
Assay: phage display selection and phage ELISA

binding, binds:
B1
B2
B3
B4
B5
B6
